# Laboratory results as given in patent US20140141974A1, “Fungicidal phenylalkyl-substituted 2-[2-chloro-4-(4-chloro-phenoxy)-phenyl]-1-[1,2,4]triazol-1-yl-ethanol compounds” (BASF SE, priority 2011, published 2014).
# Some entries share one result that the patent states for a list of compounds.
# Key:
# Assay type in all cases: in vivo
# Puccinia recondita = test: Preventative control of brown rust on wheat (Use Example 2, greenhouse); conditions: 300 ppm, wheat seedlings sprayed the day before inoculation; untreated plants 90% infected
# Phakopsora pachyrhizi = test: Preventative control of soy bean rust on soy beans (Use Example 1, greenhouse); conditions: 300 ppm, soy bean seedlings sprayed the day before inoculation; untreated plants 90% infected
# Septoria tritici = test: Preventative control of leaf blotch on wheat (Use Example 3, greenhouse); conditions: 300 ppm, wheat seedlings sprayed the day before inoculation; untreated plants 90% infected
SMILES,infection (% diseased leaf area) (Puccinia recondita),infection (% diseased leaf area) (Phakopsora pachyrhizi),infection (% diseased leaf area) (Septoria tritici)
OC(Cn1cncn1)(c1ccccc1)c1ccc(Oc2ccc(Cl)cc2)cc1Cl (stereo not shown) [Compound I-1],less than or equal to 15%,less than or equal to 15%,less than or equal to 15%
"OC(Cc1ccccc1)(Cn1cncn1)c1ccc(Oc2ccc(Cl)cc2)cc1Cl (stereo not shown) [Compound I-2, 2-[2-chloro-4-(4-chloro-phenoxy)-phenyl]-1-phenyl-3-[1,2,4]triazol-1-yl-propan-2-ol]",,less than or equal to 15%,less than or equal to 15%
OC(C#Cc1ccccc1)(Cn1cncn1)c1ccc(Oc2ccc(Cl)cc2)cc1Cl (stereo not shown) [Compound I-4],less than or equal to 15%,,less than or equal to 15%
